# Measured values taken from PubChem BioAssay AID445 (National Center for Advancing Translational Sciences (NCATS), 2006).
# Some of the results follow. Further columns of the screen follow, without active or inactive calls. The list favours compounds with an active or inconclusive main result. Potencies come from curve fits of mixed quality, noted in brackets.
# Assay: IkB Signaling
# Conditions: ABC-DLBCL IkBa-CBG/CBR dual luciferase ratio (green luciferase fused to IkBa over red control in OCI-Ly3 lymphoma cells), 4 h
# Outline: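 In this assay, an IκBα–CBG68 fusion accumulates when IKK-driven degradation is blocked; native CBR normalizes for cell number. OCI-Ly3 cells were treated 4 h with compound and doxycycline, then green and red light read after Chroma-Glo addition.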
# [1] = measured here: control luc red channel unless noted
# [2] = measured here: IkB-luc green channel
# [3] = measured here: control luc red channel
smiles,measurement,setting,value
C#CCSc1nnc(-c2ccccc2)c(=O)[nH]1,AC50,[1],"5.01 µM [falling, partial curve]"
COc1ccc(-c2nc(CS(=O)CC(=O)NCc3ccccc3Cl)c(C)o2)cc1OC (configuration not stated),AC50,[1],"3.16 µM [rising, partial curve, poor fit]"
Cn1c(C(=O)Nc2cccc(Cl)c2)cc2c(=O)n(C)c3ccccc3c21,AC50,[1],"3.16 µM [rising, partial curve]"
Cc1ccc(-c2cn3c(n2)sc2cc(C(=O)NC4CCCCCC4)ccc23)c(C)c1,AC50,[1],"15.8 µM [falling, partial curve]"
Cc1cccc(NC(c2nnc(-c3ccccc3)o2)c2ccc(F)cc2Cl)c1C (configuration not stated),AC50,[1],"20 µM [falling, partial curve]"
Cc1oc2c(c(C)cc3oc(=O)c(CC(=O)NCCc4ccc(Cl)cc4)c(C)c32)c1C,AC50,[1],"3.98 µM [falling, single point]"
COc1cccc(-c2cn3c(n2)sc2cc(C(=O)NCCc4ccccc4)ccc23)c1,AC50,[1],"20 µM [falling, partial curve]"
CCCN(C(=O)Cn1nc(Cc2cccnc2)c2ccccc2c1=O)c1ccc(C(C)C)cc1,AC50,[1],"31.6 µM [falling, single point]"
CCOc1ccc(CCNC(c2nnc(-c3ccccc3)o2)c2ccccc2Cl)cc1OCC (configuration not stated),AC50,[1],"25.1 µM [falling, single point]"
CCCn1c2ccc(C)cc2c2nnc(SCCN3CCCCC3)nc21,AC50,[1],"0.398 µM [falling, partial curve, poor fit]"
COc1ccc(CCNC(=O)c2cc(-c3ccc(C)c(C)c3)nc3ccccc23)cc1OC,AC50,[1],"7.94 µM [falling, partial curve]"
O=C(CN1C(=O)CC(c2ccco2)Sc2ccccc21)Nc1ccc(OC(F)(F)F)cc1 (configuration not stated),AC50,[1],"2.51 µM [falling, partial curve]"
O=C(NCc1ccc2c(c1)OCO2)c1ccc(-c2ccc(Cl)cc2)o1,AC50,[1],"12.6 µM [falling, partial curve]"
Cc1nc2c(ccc3nc(NC(=O)c4ccc5c(c4)OCCO5)sc32)s1,AC50,[1],"0.0794 µM [falling, full curve, poor fit]"
CC1=C(C(=O)OC2CCCCCC2)C(c2c(Cl)cccc2Cl)CC(=O)N1 (configuration not stated),AC50,[1],"25.1 µM [falling, partial curve]"
Cc1cccc(NC(=O)c2ccc(F)c(S(=O)(=O)N3CCN(c4ccc(F)cc4)CC3)c2)c1,AC50,[1],"15.8 µM [falling, single point]"
Cc1ccc(-c2cn3c(n2)sc2cc(C(=O)NC4CCCCC4)ccc23)cc1,AC50,[1],"20 µM [falling, partial curve]"
CCOc1ccccc1NC(=O)c1cn(C2CCCCC2)c(=O)c2c1c1ccccc1n2C,AC50,[1],"3.16 µM [falling, full curve]"
COc1ccc(CCNC(=O)CCn2c(=O)c3cccn3c3ccc(F)cc32)cc1OC,AC50,[1],"39.8 µM [falling, single point]"
CCOC(=O)c1ccc(CN(Cc2ccc(Cl)cc2Cl)S(=O)(=O)c2cccc(Cl)c2)cc1,AC50,[1],"0.631 µM [falling, full curve]"
O=S1(=O)N=C(Nc2nc3c(s2)CCCC3)c2ccccc21,AC50,[2],"31.6 µM [rising, single point]"
same,AC50,[3],"15.8 µM [falling, partial curve]"
O=C(O)CCSc1nnc(-c2ccc(Cl)cc2Cl)o1,AC50,[1],"0.251 µM [falling, full curve]"
Cc1ccc2nc(N(Cc3cccnc3)C(=O)CCc3ccccc3)sc2c1,AC50,[1],"25.1 µM [falling, partial curve]"
CCn1c(SCC(=O)Nc2nc(-c3ccccc3)cs2)nnc1-c1ccccc1,AC50,[1],"15.8 µM [falling, partial curve]"
Cc1ccc(-n2nnnc2SCCNS(=O)(=O)c2ccccc2)cc1C,AC50,[1],"15.8 µM [falling, partial curve]"
Cc1nn(-c2ccccc2)c2sc(C(=O)N(CC(=O)NC3CCCC3)Cc3ccco3)cc12,AC50,[1],"31.6 µM [falling, single point]"
CCCCC(=O)Nc1cccc(-c2nc3ccccc3s2)c1,AC50,[1],"20 µM [falling, partial curve]"
Cc1cccc(-n2ccnc2SCC(=O)Nc2cc(C(F)(F)F)ccc2Cl)c1,AC50,[1],"39.8 µM [falling, single point]"
CCCCN(C)CC(O)Cn1cc(/C=C/C(=O)c2ccc(OCC)cc2)c2ccccc21 (configuration not stated),AC50,[1],"15.8 µM [falling, partial curve]"
O=C(NCc1ccc(F)cc1Cl)c1ccc(CSCc2ccccc2Cl)o1,AC50,[1],"39.8 µM [falling, single point]"
Cc1ccc(NC(=O)c2cc(-c3cccs3)nc3ccccc23)c(C)c1,AC50,[1],"5.01 µM [falling, partial curve]"
CCCCN1C(=O)/C(=C2\SC(N3CCCCC3)=NC2=O)c2ccccc21,AC50,[1],"31.6 µM [falling, single point]"
Cc1ccc(N2CCN(C(=O)Nc3cn(CC(C)C)c(=O)c4ccccc34)CC2)c(C)c1,AC50,[1],"39.8 µM [falling, single point]"
CC(C)C(C(=O)Nc1ccccc1)N1C(=O)c2ccccc2C1=O (configuration not stated),AC50,[2],"31.6 µM [rising, partial curve]"
same,AC50,[3],"3.98 µM [falling, partial curve]"
Cc1ccc(CNC(=O)c2ccc(CSCc3c(F)cccc3Cl)o2)cc1,AC50,[1],"39.8 µM [falling, single point]"
COc1ccccc1NC(=O)N1CCOc2ccccc21,AC50,[1],"25.1 µM [falling, partial curve]"
COC(=O)c1cc2oc3ccccc3c2n1CC(=O)Nc1ccc(C)cc1Cl,AC50,[1],"5.01 µM [falling, full curve]"
CCn1c(C(=O)NCc2ccccc2)cc2sc(Cl)cc21,AC50,[1],"39.8 µM [falling, partial curve]"
Cc1ccc(CNC(=O)c2ccc(NC(=O)c3nsc4ccccc34)cc2)cc1,AC50,[1],"0.251 µM [falling, full curve]"
CCCOc1ccc(CNC(=O)c2cc3oc4ccccc4c3n2C)cc1,AC50,[1],"7.94 µM [falling, full curve, poor fit]"

# Shown as tab-separated lines: entries from further up.
smiles	measurement	setting	value
Cc1cccc(NC(c2nnc(-c3ccccc3)o2)c2ccc(F)cc2Cl)c1C (configuration not stated)	AC50	[1]	20 µM [falling, partial curve]
O=C(O)CCSc1nnc(-c2ccc(Cl)cc2Cl)o1	AC50	[1]	0.251 µM [falling, full curve]
CCCCN1C(=O)/C(=C2\SC(N3CCCCC3)=NC2=O)c2ccccc21	AC50	[1]	31.6 µM [falling, single point]
